# Library screening results

The chains behind the UniProt entries cited, without tags or fusion partners.
UniProt E9BF75, entry or part of it: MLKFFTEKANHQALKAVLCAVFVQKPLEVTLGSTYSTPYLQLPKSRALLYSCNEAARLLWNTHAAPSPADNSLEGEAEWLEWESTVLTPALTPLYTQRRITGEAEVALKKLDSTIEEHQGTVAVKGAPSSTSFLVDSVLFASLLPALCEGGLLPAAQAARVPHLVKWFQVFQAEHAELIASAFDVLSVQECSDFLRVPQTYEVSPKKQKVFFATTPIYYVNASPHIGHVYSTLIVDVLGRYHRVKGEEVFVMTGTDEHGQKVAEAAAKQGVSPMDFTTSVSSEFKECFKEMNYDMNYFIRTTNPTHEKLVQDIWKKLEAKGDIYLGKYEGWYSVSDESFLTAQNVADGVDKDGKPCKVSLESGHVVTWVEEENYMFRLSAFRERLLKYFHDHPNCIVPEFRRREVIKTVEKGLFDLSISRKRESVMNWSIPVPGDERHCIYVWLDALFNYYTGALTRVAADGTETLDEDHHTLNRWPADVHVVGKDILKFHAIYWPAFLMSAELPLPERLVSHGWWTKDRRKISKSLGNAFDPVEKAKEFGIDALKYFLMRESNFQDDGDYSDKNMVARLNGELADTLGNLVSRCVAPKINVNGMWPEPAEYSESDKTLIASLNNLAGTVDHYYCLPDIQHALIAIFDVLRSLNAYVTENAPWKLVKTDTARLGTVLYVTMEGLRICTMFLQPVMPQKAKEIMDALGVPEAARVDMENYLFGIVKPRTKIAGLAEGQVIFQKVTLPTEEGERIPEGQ

Mtb heat-shock: 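Assay on Mycobacterium tuberculosis, filed only as a heat shock assay from Cornell; the read-out is not stated. The concentration is filed as 10 mM, unlikely as a test dose, so the dose is not known. The record gives no direction; compounds that gave an IC50 in retests scored well above the rest, so higher reads as stronger inhibition. Size under these conditions: about 69,000 compounds, about 930 of them at 50% or above in at least one test.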
LdMetRS: 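Primary screen of methionyl-tRNA synthetase; the read-out is not stated. Target: Methionyl-tRNA synthetase (putative), Leishmania donovani (UniProt E9BF75). The test concentration is not given. Values are per cent inhibition. Of about 68,000 compounds tested this way, about 24 (0.035%) reached 50% or more in at least one test.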
Mtb growth Cornell: 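Whole-cell assay for inhibitors of Mycobacterium tuberculosis growth, labelled Cornell in the record; the read-out is not stated. The concentration is filed as 10 mM, unlikely as a test dose, so the dose is not known. Higher means stronger inhibition (inferred from two other growth screens of the library). About 53,000 compounds were tested under these conditions; 1.7% (about 900) showed 50% or more at least once.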

Results are percentages, as filed. How 0% and 100% were set is not recorded. Most values in the screen are low, and negative values occur. Compounds were drawn at random from those tested, without regard to their results. A dash means the value is not listed here; it may have been measured.

compound,Mtb heat-shock,LdMetRS,Mtb growth Cornell
Cc1ccc(N2CCCc3sc(C(=O)NCCO)nc32)nn1,-30.82,6.015,8.766
Cc1cc(C)cc(NC(=O)CC2CN(Cc3ccccc3)CCO2)c1 (stereo not shown),2.619,16.62,15.4
CCCc1cc(N2CCC(NCC3(O)CCCCC3)CC2)nc(C)n1,14.52,18.09,3.464
CCS(=O)(=O)NC1CCc2c(ccc(=O)n2CC2CC2)C1 (stereo not shown),-6.938,10.99,3.549
COCCN(CCOC)C(=O)NC1CCCCC1,-2.433,7.56,-49.64
CC(=O)N1CCC2(CC1)CCN(C(=O)c1cccc(C(F)(F)F)c1)C2,-17.86,5.229,22.29
Cc1cc(N2CCN(C(=O)c3cccnc3)CC2)nc(C)n1,-3.958,19.15,3.102
O=C(c1cscn1)N1CCCC12CCCN(S(=O)(=O)c1ccccc1)C2 (stereo not shown),-0.9522,14.89,-12.98
CCCNC(c1cccnc1)c1ccc(F)cc1F (stereo not shown),-21.87,7.988,-8.483
[H][C@]12CCN[C@@]1([H])CN(C(=O)CC(C)(C)C)C2,7.921,-,-5.933
COc1ccc(S(=O)(=O)N2CCCC3(CCCN3S(C)(=O)=O)C2)cc1 (stereo not shown),-16.94,4.089,103.2
CC(C)Nc1nc(O)cc(C2CC(=O)N(Cc3ccccc3)C2)n1 (stereo not shown),13.7,12.26,13.17
CN(C)CCOCc1cncc2c1CCN(Cc1ccccn1)C2,-,12.5,-
Cc1cc(C2CCCN(CC(=O)Nc3nc4c(s3)CCC4)C2)n[nH]1 (stereo not shown),104,6.923,32.51
CCC(C)(N)c1nc(=O)c(C(C)C)c(C)[nH]1 (stereo not shown),-,18.05,-
CCc1nnc(CN2CCN(CC(O)c3ccccc3)CC2)o1 (stereo not shown),-9.293,19.88,-
C[C@H]1C[C@H]2CN(C(=O)C3=CCCC3)CC[C@H]2O1,-,9.444,-
CC(C)[C@@H]1CN(Cc2ccccc2C#N)C[C@H]1C(=O)O,-20.14,9.524,13
Clc1cnc(NCc2ccccc2N2CCOCC2)nc1,24.09,16.27,11.26
CN1CCCN(C(=O)c2nc3c(o2)CN(C(=O)c2cccnc2)C3)CC1.O=C(O)C(F)(F)F.O=C(O)C(F)(F)F,-30.2,-,24.49
CC(C(=O)N(C)C)S(=O)(=O)c1cc2c(cc1Cl)OCCO2 (stereo not shown),3.107,15.36,15.68
C/C=C(\C)CN1C[C@H](c2cccc(OC)c2)[C@@H](N)C1,4.659,11.98,23.94
CCc1nnc(CN(C)C2CCCN(Cc3noc(C4CC4)n3)C2)o1 (stereo not shown),-0.7157,10.29,-9.751
Cc1nccn1-c1ccc(=O)n(CCNC(=O)c2ccccn2)n1,-3.195,18.7,-35.83
CCNC(=O)[C@@H]1C[C@H](N)CN1Cc1ccc(-c2cc[nH]n2)o1,8.613,-1.282,8.306
CN(Cc1nc2ccccc2o1)CC1CCCN1c1cccnn1 (stereo not shown),24.04,13.4,-25.78
O=C(C1CCCN(C2CCOCC2)C1)N1CCc2ncccc2C1 (stereo not shown),0.3119,19,-3.663
COCC(=O)N1CCC2(CC1)CC(OC)c1ccc(F)cc12 (stereo not shown),-9.901,5.072,7.735
CN(Cc1ccc(F)cc1F)CC(C)(CO)CO,1.635,13.1,-
CC1CN(c2ccc(CNC(=O)NCc3ccoc3)cn2)CCO1 (stereo not shown),-12.69,8.707,0.07015
CCn1c(Cn2cncn2)nnc1C1CCN(C2CCNCC2)CC1,-32.39,15.23,20.38
CN(Cc1noc(C(C)(C)C)n1)C1CCCN(c2cccnn2)C1 (stereo not shown),-23.3,9.402,-40.52
[H][C@]12CC[C@]([H])(CN(Cc3cccc(O)c3)C1)N(Cc1c(C)noc1C)C2=O,-14.16,-,-1.291
Cc1cc(C)n(C2=NC(NCCC(C)C)c3c(sc4c3CCCC4)N2)n1 (stereo not shown),11.87,16.43,1.366
COc1ccccc1C(O)CNC(=O)Nc1cccnc1OC (stereo not shown),-19.15,26.2,-
FC(F)Oc1ccc(CNCc2cc(Cl)c3c(c2)OCO3)cc1,-,15.62,-
CN1CC(=O)N(c2cccc(F)c2)CC12CCN(Cc1ccsc1)C2 (stereo not shown),-,16.31,-
COc1ccc(C)cc1CN1CCN(Cc2nccn2C)C(C)C1 (stereo not shown),-14.72,9.278,-
CCO[C@H]1CO[C@@]2(CCCN(S(=O)(=O)c3ccccc3)C2)C1,-11.13,3.004,-8.449
CCn1c(C2CCCN(Cc3ccc(OC)c(C)c3C)C2)nn(C)c1=O (stereo not shown),21.96,9.964,-
O=C(C[C@@H]1COC[C@H]2CN(Cc3cccnc3)C[C@@H]12)N1CCOCC1,-,7.205,-
CC(=O)Nc1ccc(CNC2CCCSC2)cc1 (stereo not shown),-21.28,8.02,-26.05
COC(=O)c1ccc(N2CCN(C(=O)CCCc3cn[nH]c3)CC2)cc1,-4.523,6.991,-9.975
Cn1cnc(S(=O)(=O)N2CCCCc3ccccc32)c1,-0.8049,2.542,-36.13
Cc1nc([C@H]2C[C@H]3CN(C(=O)c4ccoc4C)CC[C@@H]3O2)no1,-,4.301,-
CSc1cccc(NC(=O)CCC(=O)Nc2nccs2)c1,7.004,9.382,-3.998
Cn1cc([C@@H]2CN(S(=O)(=O)c3cccs3)C[C@H]2N)c2ccncc21,-,13.35,-
Cc1ncc(CO)c(CN2CCCC2c2nc3c(C)cccc3[nH]2)c1O (stereo not shown),4.706,6.265,3.259
Cc1cnn(C2CN(CCOc3ccccc3C#N)C2)c1,7.828,8.683,-
CSc1ccc(CN(C)C(=O)c2cc3c([nH]c2=O)CCCC3=O)cc1,7.797,11.11,-
CCn1ccnc1CN1CCCN(C(=O)c2ccc(C#N)cc2)CC1,-32.55,16.54,19.27
Cc1cc(CCC(=O)N2CCCC2)nc(C2CCCN2)n1 (stereo not shown),-20.91,22.03,-2.574
O=C(NCCCn1cncn1)N1CCCCCC1,-26.53,18.58,-
CCOCC1COCCC12CCN(C(=O)CC1=CCCCC1)CC2 (stereo not shown),-17.75,15.58,27.73
Cc1noc(C)c1CN1CCC2(CCN(Cc3cccc(F)c3)CC2)C1.O=C(O)C(F)(F)F.O=C(O)C(F)(F)F,30.34,-,-12.71
CC(C)Cc1cc(NC(=O)N2CCC(Oc3cccnc3)C2)n(C)n1 (stereo not shown),-18.04,6.425,9.632
CSCC1CCCN(c2ncnc3oc(C)nc23)C1 (stereo not shown),8.198,15.89,12.46
Cc1cccc(CN2C[C@@H]3COC[C@]3(CNC(=O)c3cccn3C)C2)n1,-,2.614,-
CC(C)[C@H]1CN(c2ccnc(N)n2)C[C@@H]1NC(=O)C1(C#N)CCOCC1,10.75,12.31,3.069
Cc1nc(CN2CCCC(CCc3ccccc3F)C2)c[nH]1 (stereo not shown),0.6291,10.44,-
NC(=O)CC1CCN(c2cncc(OCc3ccccc3)n2)CC1,12.17,19.05,21.51
NCC1CN(C(=O)c2cccc(-n3cccn3)c2)CCO1 (stereo not shown),5.538,4.872,-31.23
O=C(NCCNc1ncccn1)C1CCN(c2ncccn2)CC1,10.43,12.38,18.9

7 of the entries, repeated:

compound,Mtb heat-shock,LdMetRS,Mtb growth Cornell
CCOCC1COCCC12CCN(C(=O)CC1=CCCCC1)CC2 (stereo not shown),-17.75,15.58,27.73
O=C(c1cscn1)N1CCCC12CCCN(S(=O)(=O)c1ccccc1)C2 (stereo not shown),-0.9522,14.89,-12.98
COC(=O)c1ccc(N2CCN(C(=O)CCCc3cn[nH]c3)CC2)cc1,-4.523,6.991,-9.975
NC(=O)CC1CCN(c2cncc(OCc3ccccc3)n2)CC1,12.17,19.05,21.51
COc1ccc(S(=O)(=O)N2CCCC3(CCCN3S(C)(=O)=O)C2)cc1 (stereo not shown),-16.94,4.089,103.2
Cc1cc(CCC(=O)N2CCCC2)nc(C2CCCN2)n1 (stereo not shown),-20.91,22.03,-2.574
CCC(C)(N)c1nc(=O)c(C(C)C)c(C)[nH]1 (stereo not shown),-,18.05,-

From ChEMBL document CHEMBL3988442, “University of Dundee, Small-Polar-MMV Screening Library” (2021).